## Cleaved PARP in drug-treated melanoma cells

Source: doi:10.1371/journal.pone.0140310, primary screening data, rounded.

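The test systems are human melanoma cell lines, treated with a pair of drugs for 72 h and then stained and imaged. Each value is the cleaved-PARP-positive fraction of nuclei relative to DMSO-treated wells, in %, so that 100 equals the control and higher values mean more apoptosis. Concentrations were fixed for each drug; these are the higher of two levels. These are primary screening values without error estimates. The marker varies much from line to line, for technical or biological reasons.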
Only some of the drugs and lines screened are listed, without regard to their results.

All values are for the listed drug together with nilutamide (5000 nM): CC1(C)NC(=O)N(c2ccc([N+](=O)[O-])c(C(F)(F)F)c2)C1=O

For O=C(Nc1cc(C(F)(F)F)cc(C(F)(F)F)c1)c1cc(Cl)ccc1O at 80 nM the values were COLO 800: 64.4; LOX IMVI: 81.2; WM3619: 112; C32: 207; COLO 829: 37.6; IPC-298: 267.
For COc1cc(N2CCC(N3CCN(C)CC3)CC2)ccc1Nc1ncc(Cl)c(Nc2ccccc2S(=O)(=O)C(C)C)n1 at 400 nM the values were COLO 800: 175; LOX IMVI: 36.1; WM3619: 112; C32: 197; COLO 829: 98.3; IPC-298: 50.7.
For CO[C@@H]1[C@H](N(C)C(=O)c2ccccc2)C[C@H]2O[C@]1(C)n1c3ccccc3c3c4c(c5c6ccccc6n2c5c31)C(=O)NC4 at 400 nM the values were COLO 800: 419; LOX IMVI: 215; WM3619: 115; C32: 84.4; COLO 829: 142; IPC-298: 83.4.
For O=c1[nH]nc(Sc2ncc([N+](=O)[O-])s2)n1-c1ccc2c(c1)OCCO2 at 1000 nM the values were COLO 800: 120; LOX IMVI: 213; WM3619: 104; C32: 112; COLO 829: 75.6; IPC-298: 68.4.
For CS(=O)(=O)CCNCc1ccc(-c2ccc3ncnc(Nc4ccc(OCc5cccc(F)c5)c(Cl)c4)c3c2)o1 at 4000 nM the values were COLO 800: 146; LOX IMVI: 39.6; WM3619: 248; C32: 276; COLO 829: 243; IPC-298: 73.5.
For Nc1ccn([C@@H]2O[C@H](CO)[C@@H](O)C2(F)F)c(=O)n1 at 2 nM the values were COLO 800: 352; LOX IMVI: 113; WM3619: 183; C32: 51.7; COLO 829: 201; IPC-298: 64.8.
For C[C@]12O[C@H](C[C@]1(O)CO)n1c3ccccc3c3c4c(c5c6ccccc6n2c5c31)CNC4=O at 20 nM the values were COLO 800: 36.8; LOX IMVI: 89.9; WM3619: 104; C32: 154; COLO 829: 152; IPC-298: 42.8.
For Cc1cc(Nc2cc(N3CCN(C)CC3)nc(Sc3ccc(NC(=O)C4CC4)cc3)n2)n[nH]1 at 30 nM the values were COLO 800: 163; LOX IMVI: 266; WM3619: 123; C32: 226; COLO 829: 111; IPC-298: 83.2.
For O=C(O)[C@@H]1[O][Sb](=[O])([O][Sb]2(=[O])[O][C@H]([C@H](O)CO)[C@H](O)[C@H](C(=O)O)[O]2)[O][C@H]([C@H](O)CO)[C@@H]1O (stereo partly shown) at 10000 nM the values were COLO 800: 69.0; LOX IMVI: 50.1; WM3619: 83.8; C32: 97.5; COLO 829: 123; IPC-298: 30.7.
For CC[C@]1(O)C[C@H]2CN(CCc3c([nH]c4ccccc34)[C@@](C(=O)OC)(c3cc4c(cc3OC)N(C=O)[C@H]3[C@@](O)(C(=O)OC)[C@H](OC(C)=O)[C@]5(CC)C=CCN6CC[C@]43[C@@H]65)C2)C1 at 0.5 nM the values were COLO 800: 272; LOX IMVI: 283; WM3619: 140; C32: 336; COLO 829: 91.1; IPC-298: 68.5.
For Cc1ccc(Nc2nccc(N(C)c3ccc4c(C)n(C)nc4c3)n2)cc1S(N)(=O)=O at 2000 nM the values were COLO 800: 337; LOX IMVI: 88.1; WM3619: 116; C32: 155; COLO 829: 54.7; IPC-298: 87.3.
For NC(=O)c1ccc(N(C(N)=O)c2c(F)cccc2F)nc1-c1ccc(F)cc1F at 2000 nM the values were COLO 800: 575; LOX IMVI: 78.7; WM3619: 123; C32: 52.6; COLO 829: 144; IPC-298: 83.7.
For Cc1cc([N+](=O)[O-])ccc1NS(=O)(=O)c1cc(Cl)ccc1Cl at 5000 nM the values were COLO 800: 132; LOX IMVI: 164; WM3619: 138; C32: 91.1; COLO 829: 156; IPC-298: 58.6.
For Cc1cc(N2CCOCC2)cc2[nH]c(-c3c(NC[C@@H](O)c4cccc(Cl)c4)cc[nH]c3=O)nc12 at 1000 nM the values were COLO 800: 430; LOX IMVI: 181; WM3619: 129; C32: 289; COLO 829: 121; IPC-298: 150.
For COc1cc([C@@H]2c3cc4c(cc3[C@@H](O[C@@H]3O[C@@H]5CO[C@@H](C)O[C@H]5[C@H](O)[C@H]3O)[C@H]3COC(=O)[C@H]23)OCO4)cc(OC)c1O at 100 nM the values were COLO 800: 150; LOX IMVI: 131; WM3619: 157; C32: 124; COLO 829: 65.6; IPC-298: 39.6.
For Oc1cc(-c2nc(-c3ccccc3)[nH]c2-c2ccncc2)ccc1Cl at 1000 nM the values were COLO 800: 34.2; LOX IMVI: 108; WM3619: 105; C32: 104; COLO 829: 121; IPC-298: 94.5.
For C[C@@H]1CCN(C(=O)CC#N)C[C@@H]1N(C)c1ncnc2[nH]ccc12 at 5000 nM the values were COLO 800: 84.9; LOX IMVI: 68.8; WM3619: 96.4; C32: 63.3; COLO 829: 164; IPC-298: 71.8.
For C/C(O)=C(\C#N)C(=O)Nc1cc(Br)ccc1Br at 10000 nM the values were COLO 800: 133; LOX IMVI: 191; WM3619: 86.0; C32: 128; COLO 829: 55.3; IPC-298: 22.7.
For COc1ccc2c(c1)CCC1C2CCC2(C)C(NCCCCCCN3C(=O)C=CC3=O)CCC12 (stereo not shown) at 2000 nM the values were COLO 800: 32.3; LOX IMVI: 162; WM3619: 95.0; C32: 101; COLO 829: 84.7; IPC-298: 85.9.
For COc1cc2c(Oc3ccc4[nH]c(C)cc4c3F)ncnc2cc1OCCCN1CCCC1 at 2000 nM the values were COLO 800: 198; LOX IMVI: 63.5; WM3619: 95.2; C32: 73.5; COLO 829: 30.2; IPC-298: 139.
For CCCCCCCCCCCC1=C(O)C(=O)C=C(O)C1=O at 6000 nM the values were COLO 800: 219; LOX IMVI: 119; WM3619: 110; C32: 164; COLO 829: 122; IPC-298: 61.3.
For O=C(CCCCCCC(=O)Nc1ccccc1)NO at 400 nM the values were COLO 800: 157; LOX IMVI: 254; WM3619: 117; C32: 82.2; COLO 829: 59.6; IPC-298: 34.6.
For CNC(=O)c1cc(Oc2ccc(NC(=O)Nc3ccc(Cl)c(C(F)(F)F)c3)cc2)ccn1 at 2000 nM the values were COLO 800: 195; LOX IMVI: 89.0; WM3619: 80.9; C32: 72.7; COLO 829: 120; IPC-298: 33.8.
For COc1ccc(C2=N[C@@H](c3ccc(Cl)cc3)[C@@H](c3ccc(Cl)cc3)N2C(=O)N2CCNC(=O)C2)c(OC(C)C)c1 at 500 nM the values were COLO 800: 88.3; LOX IMVI: 32.5; WM3619: 126; C32: 180; COLO 829: 357; IPC-298: 77.3.
For CCCCCCCCCCCCCCCCCCOP(=O)([O-])OC1CC[N+](C)(C)CC1 at 2000 nM the values were COLO 800: 72.5; LOX IMVI: 44.8; WM3619: 170; C32: 173; COLO 829: 190; IPC-298: 66.5.
For Cn1cnc2c(F)c(Nc3ccc(Br)cc3Cl)c(C(=O)NOCCO)cc21 at 75 nM the values were COLO 800: 91.1; LOX IMVI: 68.3; WM3619: 132; C32: 334; COLO 829: 93.2; IPC-298: 318.
For c1cc(-c2cnn3cc(-c4ccc(OCCN5CCCCC5)cc4)cnc23)ccn1 at 2000 nM the values were COLO 800: 81.0; LOX IMVI: 58.1; WM3619: 157; C32: 118; COLO 829: 83.3; IPC-298: 66.1.
For CCc1ccc(CCOc2ccc(CC3SC(=O)NC3=O)cc2)nc1 (stereo not shown) at 10000 nM the values were COLO 800: 89.0; LOX IMVI: 65.4; WM3619: 92.0; C32: 109; COLO 829: 93.2; IPC-298: 71.2.
For Cn1c(=O)n(-c2ccc(C(C)(C)C#N)cc2)c2c3cc(-c4cnc5ccccc5c4)ccc3ncc21 at 20 nM the values were COLO 800: 123; LOX IMVI: 59.3; WM3619: 168; C32: 311; COLO 829: 281; IPC-298: 93.8.
For CN(NC(=O)CC(=O)NN(C)C(=S)c1ccccc1)C(=S)c1ccccc1 at 30 nM the values were COLO 800: 383; LOX IMVI: 43.1; WM3619: 1220; C32: 5500; COLO 829: 232; IPC-298: 108.
For NCC(=O)Nc1ccc(-n2nc(C(F)(F)F)cc2-c2ccc3c(ccc4ccccc43)c2)cc1 at 5000 nM the values were COLO 800: 73.3; LOX IMVI: 156; WM3619: 161; C32: 130; COLO 829: 35.9; IPC-298: 105.
For N.N.[Cl][Pt][Cl] at 8000 nM the values were COLO 800: 64.1; LOX IMVI: 62.4; WM3619: 101; C32: 81.8; COLO 829: 117; IPC-298: 130.
For Nc1ncn([C@H]2C[C@H](O)[C@@H](CO)O2)c(=O)n1 at 500 nM the values were COLO 800: 122; LOX IMVI: 108; WM3619: 67.3; C32: 63.7; COLO 829: 145; IPC-298: 218.
For N#Cc1c(O)c2c(-c3ccc(-c4ccccc4O)cc3)csc2[nH]c1=O at 10000 nM the values were COLO 800: 19.4; LOX IMVI: 139; WM3619: 80.7; C32: 76.6; COLO 829: 91.5; IPC-298: 72.8.
For C[As](C)SC[C@H](NC(=O)CC[C@H](N)C(=O)O)C(=O)NCC(=O)O at 2000 nM the values were COLO 800: 108; LOX IMVI: 74.6; WM3619: 118; C32: 54.0; COLO 829: 139; IPC-298: 32.9.

Some entries from above, unchanged:

Partner	COLO 800	LOX IMVI	WM3619	C32	COLO 829	IPC-298
Cn1cnc2c(F)c(Nc3ccc(Br)cc3Cl)c(C(=O)NOCCO)cc21 at 75 nM	91.1	68.3	132	334	93.2	318
C[C@@H]1CCN(C(=O)CC#N)C[C@@H]1N(C)c1ncnc2[nH]ccc12 at 5000 nM	84.9	68.8	96.4	63.3	164	71.8
CO[C@@H]1[C@H](N(C)C(=O)c2ccccc2)C[C@H]2O[C@]1(C)n1c3ccccc3c3c4c(c5c6ccccc6n2c5c31)C(=O)NC4 at 400 nM	419	215	115	84.4	142	83.4
O=C(CCCCCCC(=O)Nc1ccccc1)NO at 400 nM	157	254	117	82.2	59.6	34.6